Results: PubChem BioAssay AID1347423 (Functional Genomics Laboratory (NCATS/FGL), 2020)
Hit rate of the full screen: of about 52,000 sequences, about 210 (0.4%) were called active.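 Rule for the calls: active = gene whose silencing raises cell survival under the drug, median off-target-corrected z-score across its silencing RNAs 2 or more; inactive = the rest.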 This is one part of the list.

Experiment: Resistance to Poly (ADP-Ribose) Polymerase inhibitor: Gene Identification via Genome-wide siRNA Screen
Details: mouse BRCA2 R2336H ES cells, olaparib, CellTiter-Glo viability; active compounds read high
Summary of the method: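 Mouse BRCA2 R2336H ES cells were reverse-transfected with siRNA (20 nM final), treated at 48 h with 500 nM olaparib, and read by CellTiter-Glo after 72 h. Scores: MAD-based z per siRNA, median per gene, seed off-target correction.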

Q: Which z-score does the source give for GGGCUGUGAACACAAGUGUTT against Egfl3 here?
A: inactive: -1.02

Q: Which z-score does the source give for CCCUGUUAAGGAAUGCAAATT against Chi3l1 here?
A: inactive: -0.0256

Q: Which z-score does the source give for GGUAGUAGAGUCAAAAAAGTT against Top1 here?
A: inactive: -0.854

Q: Which z-score does the source give for GCCCUUUUCAAGUGAUCAGTT against Pfkfb1 here?
A: inactive: -1.08

Q: Which z-score does the source give for GCCAAUGAUACCUUUGACATT against Mcoln1 here?
A: inactive: -1.25

Q: For “GGAAGUAAGAGACUGUGAGTT against C330027I04Rik”, which z-score is on record?
A: inactive: -1.2

Q: With GACUCCCACUUACACUCUCTT against Olfr1312 as the sequence, how does the z-score read?
A: inactive: -1.08

Q: For GGUUACAUGGAUUGAAGCUTT against Scrn3, which z-score is on record?
A: inactive: -0.0938

Q: With GCAGAGAUAAAUUGGAAAGTT against Art2b as the sequence, how does the z-score read?
A: inactive: 0.181

Q: With CGGAACCAUACUUUCCUUATT against Olfr1162 as the sequence, how does the z-score read?
A: inactive: 0.568

Q: For GCAACAACCUGUGCCUACATT against Lgals1, which z-score is on record?
A: inactive: 0.408

Q: For GGUUCUUGACCCUUUCACATT against Atcay, which z-score is on record?
A: inactive: 0.139

Q: For GGGUGGUUAGAACAGCCACTT against Prss16, which z-score is on record?
A: inactive: 1.01

Q: With GGAAGUUCUGCACACAGCATT against Pthr1 as the sequence, how does the z-score read?
A: inactive: -0.362

Q: Which z-score does the source give for GGAUCAAGGAGCAAGUGGUTT against Galgt1 here?
A: inactive: -1.78

Q: With GCUGGAUCCAUCUAAUUGCTT against Klhl12 as the sequence, how does the z-score read?
A: inactive: 1.42

Q: With “GGCCCGUCACAUGAAGAAGTT against D830007E07Rik” as the sequence, how does the z-score read?
A: inactive: 0.398

Q: For “GGUUGUCAAUCAUGUCUAUTT against 6330416L11Rik”, which z-score is on record?
A: inactive: -0.0551

Q: For “GGUGUAUGAGUUUGAGUUUTT against 9030625A04Rik”, which z-score is on record?
A: inactive: 0.176

Q: For CGACUCCAAGUGGUUUAAATT against Sema6b, which z-score is on record?
A: inactive: -0.416

Q: Which z-score does the source give for GCACCUAAAGUACGUUUCATT against Ube2n here?
A: inactive: -2.89

Q: For GCCACUGUCACUUUUGUACTT against Arl11, which z-score is on record?
A: inactive: 1.91

Q: Which z-score does the source give for CCAAUUUGGCUUCACUUCCTT against Fprl1 here?
A: inactive: 0.682

Q: For “GCUGAACAGGUUACGAAAATT against 2010321M09Rik”, which z-score is on record?
A: inactive: -0.352

Q: Which z-score does the source give for “GGAUGAGCUAAUAGCUAAGTT against G430022H21Rik” here?
A: inactive: 0.328

Q: Which z-score does the source give for CCAUUAUUUUACGAAACCUTT against Rbm10 here?
A: inactive: -0.898

Q: For GGCUCUAAAGCAAUGGAUUTT against Bclp2, which z-score is on record?
A: inactive: 0.613

Q: With GGGUGACAUUGUCUAUAUCTT against Sh3d4 as the sequence, how does the z-score read?
A: inactive: 0.3

Q: For GGCAGAGAGAUGUUACAAGTT against Ccl8, which z-score is on record?
A: inactive: -0.328

Q: For “GCGAAGCCAUGUUUCACCUTT against 1300018J18Rik”, which z-score is on record?
A: inactive: -0.0663

Q: For “CCCAGGACGAGACUUAAAUTT against B430218L07Rik”, which z-score is on record?
A: inactive: 0.583

Q: With CCCUGAACGAAUAAUCGGCTT against Cbx3 as the sequence, how does the z-score read?
A: inactive: -0.637

Q: Which z-score does the source give for GGGAUUAAGUCACCUCUGUTT against Rab15 here?
A: inactive: -1.69

Q: For CCGAUUUUGCACCUCAGCUTT against Bphl, which z-score is on record?
A: inactive: -0.252

Q: Which z-score does the source give for GCUCUCCUGAAAUUAUGUATT against Wrb here?
A: inactive: 0.497

Q: Which z-score does the source give for GCUGAUCCUCUCCCUUCAUTT against Tas2r131 here?
A: inactive: -0.303

Q: For GGGUGGUCAGUGGUCAAAATT against Chodl, which z-score is on record?
A: inactive: -0.36

Q: Which z-score does the source give for “GGAUGAACCUACACCCUAATT against 2610209N15Rik” here?
A: inactive: -0.567

Q: Which z-score does the source give for GCAGAUCAGAAGAAAUUUGTT against Jmy here?
A: inactive: 0.571

Q: With “CGUGAUUGUGGACCAUUCUTT against 2310075G12Rik” as the sequence, how does the z-score read?
A: inactive: -0.492

Q: Which z-score does the source give for GGUGGUUGAAAAGAAAACUTT against Hspa5 here?
A: inactive: -0.998

Q: For “GGAUCUGUAUUGUAAACAATT against 5330414D10Rik”, which z-score is on record?
A: inactive: 0.846

Q: For GCGAAUUGAAGGCUCGGGATT against Dnm2, which z-score is on record?
A: inactive: -0.0964

Q: With GCUCAGAAAUCGGCUCAGATT against Ssbp2 as the sequence, how does the z-score read?
A: inactive: -0.7

Q: For GGAAAGAGAGUCUUAAAUGTT against Ncb5or, which z-score is on record?
A: inactive: -1.07

Q: Which z-score does the source give for CCGUGUCCAACAUUCUCUCTT against Tas1r2 here?
A: inactive: 0.201

Q: For GCUAUCACCACAACUACCATT against Cyp46a1, which z-score is on record?
A: inactive: -1.11

Q: For GGAGCCACCACAACUAUAATT against F2rl2, which z-score is on record?
A: inactive: 0.157

Q: With GGAUGCAUUCAUGAGUAUUTT against Ifng as the sequence, how does the z-score read?
A: inactive: -1.32

Q: Which z-score does the source give for GGUGAACAUGCGCAUCAAATT against Ugt1a5 here?
A: inactive: 1.05

Q: For GGGAUUUAACAACAUGUAATT against Slc20a1, which z-score is on record?
A: active: 2.29

Q: With CGAUUUAUUCUGCUAUUGGTT against Pla2g7 as the sequence, how does the z-score read?
A: inactive: 1.07

Q: With GCGUAUAUAUACUUCACUGTT against Stxbp3 as the sequence, how does the z-score read?
A: inactive: -1.84

Q: With GGUAAUGGAAAUGAACAAATT against Zfp353 as the sequence, how does the z-score read?
A: inactive: 0.457

Q: With “CGUCUCCUGAACUUAGAAUTT against 1110008F13Rik” as the sequence, how does the z-score read?
A: inactive: -1.09

Q: Which z-score does the source give for GGAAUUCCCAAGAGAAGGATT against Gyk here?
A: inactive: -2.02

Q: Which z-score does the source give for CGCAACCUGAAAAUGGCAUTT against BC022687 here?
A: inactive: 0.361

Q: With CCAAAUGAGGCUACCACAATT against Socs7 as the sequence, how does the z-score read?
A: inactive: -1.31

Q: Which z-score does the source give for GGAGAAGCUGCCUUUCAUGTT against BC030476 here?
A: inactive: 0.63

Q: For GCAGUUGGUUCAAGUCAACTT against Psat1, which z-score is on record?
A: inactive: 0.841

Q: For GAUUCUUACUUUGGUCUACTT against Olfr9, which z-score is on record?
A: inactive: -0.866

Q: Which z-score does the source give for GGCAAUCGAGAUUAUGCCATT against Itgav here?
A: inactive: 0.26

Q: With GGCCGUGCCAUUCAAAGACTT against Aoah as the sequence, how does the z-score read?
A: inactive: 0.167

Q: With CCGAGAAACGAAUAAGUCATT against Rbmx as the sequence, how does the z-score read?
A: inactive: 0.138

Q: Which z-score does the source give for GGAUAUACUGUGGAGGCUUTT against Gzmd here?
A: inactive: -1.17

Q: With GGAACUCAGUAACACCCAGTT against Fcamr as the sequence, how does the z-score read?
A: inactive: 0.348

Q: Which z-score does the source give for GGUAACGAUGAGGUCAUCGTT against Atp6ap1 here?
A: inactive: -0.733

Q: Which z-score does the source give for CCUGCUAAAGGCUUCUCAATT against LOC217066 here?
A: inactive: -0.348

Q: For “CCAUUAUUGGCCCAUGCUCTT against 5430437P03Rik”, which z-score is on record?
A: inactive: 0.809

Q: For GCUACUAAACAGGGUGUGATT against Gpsm3, which z-score is on record?
A: inactive: -1.1

Q: Which z-score does the source give for GGAGUACGAGCAAAUGGUGTT against Nfkbia here?
A: inactive: 0.631

Q: For GGUGUGUUUUAUGUGUCCCTT against Gm672, which z-score is on record?
A: inactive: -0.591

Q: With CCUAUUACUCUCAAGGUUCTT against BC019943 as the sequence, how does the z-score read?
A: inactive: 0.828

Q: With CCUAUAAUGCUGAAAUGGCTT against Olfr702 as the sequence, how does the z-score read?
A: inactive: -0.343

Q: For “GGAAAAAUCAUCCUGGCUCTT against 1110002B05Rik”, which z-score is on record?
A: inactive: -0.199

Q: With CCACUUUCCCAUUCAGGAATT against Gpr84 as the sequence, how does the z-score read?
A: inactive: 0.893

Q: Which z-score does the source give for “GGUUUAAGCACUACAGUGATT against 2310022M17Rik” here?
A: inactive: 0.555

Q: For CCUUUCCUUUAUUGAUCUCTT against Olfr888, which z-score is on record?
A: inactive: -0.0698

Q: With GCUAAACUCCACCAAGACATT against Grid2ip as the sequence, how does the z-score read?
A: inactive: 1.8

Q: Which z-score does the source give for GCGGGAAUGGAACGAAAACTT against Otx1 here?
A: inactive: 0.349

Q: With GGAGGAAAAGUAGGUUUGCTT against Peli1 as the sequence, how does the z-score read?
A: inactive: 0.222

Q: With GGUACUAUUCAGUCCUUUATT against Gm1012 as the sequence, how does the z-score read?
A: inactive: -0.491

Q: For “GCUCCUGUUUAAGCAUAUGTT against A930012M17”, which z-score is on record?
A: inactive: 0.717

Q: With CGUACUCAAAGGCUAACCGTT against Lamc1 as the sequence, how does the z-score read?
A: inactive: -0.386

Q: Which z-score does the source give for GUGGUUUCGGUGCUUGGGUTT against Svs3 here?
A: inactive: -1.9

Q: Which z-score does the source give for GCUCAUCGGUCAGAUCAAATT against Syt3 here?
A: inactive: 0.474

Q: With GGCUAAGGACUUGCCAACUTT against Pip5k2b as the sequence, how does the z-score read?
A: inactive: -0.271

Q: Which z-score does the source give for “CGGAAAUAAGUUUCCCUUGTT against 2310039H08Rik” here?
A: inactive: -0.503

Q: For “GCUAAAUUUGGGCACUAAUTT against 1810036I24Rik”, which z-score is on record?
A: inactive: 1.03

Q: With “GGAGAAGACUUGUAACAAATT against 4933428I03Rik” as the sequence, how does the z-score read?
A: inactive: -1.95

Q: With GCUUGUGAUCGACUCUGCATT against Centb5 as the sequence, how does the z-score read?
A: inactive: 0.0161

Q: Which z-score does the source give for GGACUAUGUCAUCAAGAUUTT against Napsa here?
A: inactive: 1.78

Q: With GGAAAGGAUCCAGACUUUATT against Crisp2 as the sequence, how does the z-score read?
A: inactive: 0.556

Q: With CGUGUCCAAAGGUGAAUCATT against Psmd1 as the sequence, how does the z-score read?
A: inactive: -3.5

Q: With GGAGAGAAUACUAUUUCAATT against Pknox1 as the sequence, how does the z-score read?
A: inactive: 0.884

Q: Which z-score does the source give for CGGUGACGAACAACUUGAATT against Tpm1 here?
A: inactive: 0.0484

Q: Which z-score does the source give for GGAAUAAAAGGAGAGAAAGTT against Slc14a2 here?
A: inactive: -0.0891

Q: For GGAAACAGGAUUAAGCUAGTT against Ankrd27, which z-score is on record?
A: inactive: 0.527

Q: Which z-score does the source give for GGAGAUUAAAGCUUCAAAATT against Ldhd here?
A: inactive: 0.76

Q: For GCACUAGACGAGAUGACAATT against Eif4g2, which z-score is on record?
A: inactive: -0.835

Q: Which z-score does the source give for GGUAGUAGUGAAACCCAGGTT against Irs4 here?
A: inactive: -1.25

Q: Which z-score does the source give for UGGGUAUUACCAUAAAUGUTT against Tas2r114 here?
A: inactive: 0.824

Q: For “GGAAUUCUGCACCUCCCAATT against A730020M07Rik”, which z-score is on record?
A: inactive: 0.236

Q: With GCUAUGUCAUAUCAUCAAGTT against Gpr64 as the sequence, how does the z-score read?
A: inactive: 1.17
